# Results from PubChem BioAssay AID743255 (National Center for Advancing Translational Sciences (NCATS), 2014).
# Amino acid sequences for entries named in this document (tags omitted). A change or cut given only in a name is not applied to a line headed by its entry.
# UniProt O94782: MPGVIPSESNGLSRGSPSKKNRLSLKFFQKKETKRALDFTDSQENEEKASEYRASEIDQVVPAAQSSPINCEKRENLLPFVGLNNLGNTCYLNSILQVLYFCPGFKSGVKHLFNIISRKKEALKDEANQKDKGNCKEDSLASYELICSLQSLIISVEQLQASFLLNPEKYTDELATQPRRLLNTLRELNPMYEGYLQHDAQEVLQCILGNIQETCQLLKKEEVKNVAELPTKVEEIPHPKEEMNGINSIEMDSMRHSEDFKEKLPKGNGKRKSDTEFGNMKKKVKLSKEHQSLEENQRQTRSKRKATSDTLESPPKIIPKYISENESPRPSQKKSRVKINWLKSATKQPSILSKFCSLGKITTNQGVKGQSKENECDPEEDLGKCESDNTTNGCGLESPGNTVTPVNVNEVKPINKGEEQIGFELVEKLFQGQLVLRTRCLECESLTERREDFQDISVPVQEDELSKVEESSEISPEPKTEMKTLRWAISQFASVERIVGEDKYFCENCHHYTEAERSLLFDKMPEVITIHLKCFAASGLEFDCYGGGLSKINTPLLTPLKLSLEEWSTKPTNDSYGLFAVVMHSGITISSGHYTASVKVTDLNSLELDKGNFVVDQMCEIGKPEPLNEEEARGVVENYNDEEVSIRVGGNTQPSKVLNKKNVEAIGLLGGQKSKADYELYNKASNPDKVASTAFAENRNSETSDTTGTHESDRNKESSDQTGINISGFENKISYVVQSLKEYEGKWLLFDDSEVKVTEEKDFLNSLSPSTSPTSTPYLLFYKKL
# Hit rate of the full screen: of about 390,000 compounds, about 910 (0.23%) were called active. This list was built around the results that the source calls inconclusive (neither active nor inactive); the mix of calls is not that of the screen. Calls follow the shape of the dose curve; as a rule, active = well fitted inhibition curve with a large enough effect; inconclusive = small, poorly fitted or top-dose-only effect; inactive = no such curve, though single readings can be large or run the other way. Potencies beside an inconclusive call are fits to weak or partial responses and may not hold up.
# Biological target: Ubiquitin carboxyl-terminal hydrolase 1 (Homo sapiens) (UniProt O94782)
# Assay: Inhibitors of USP1/UAF1: Primary Screen; also: nearly all actives have a fitted effect of over 60% in size
# Details: recombinant USP1/UAF1, Ub-Rhodamine cleavage fluorescence; activity change, negative = inhibition: at 57.1 µM (top of the series)
# Method in brief: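 1 nM enzyme complex + cpd, 15 min RT; start with Ub-Rho 150nM final; kinetic fluorescence ex 480/em 540, 6 reads q60 s. Buffer 50mM HEPES pH 7.8, 0.5mM EDTA, 0.1 mg/ml BSA, 1mM TCEP, 0.01% Tween-20.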
# % is scaled to controls: 0 for no effect and ±100 for the full control effect; potency is read from the fitted curve at half-maximal effect.
SMILES,Potency,"activity change, negative = inhibition"
O=C(Nc1ccc(Cl)cc1)c1nc[nH]c1C(=O)NCCCCNC(=O)c1[nH]cnc1C(=O)Nc1ccc(Cl)cc1,"inconclusive: 11.2 µM [inhibitor, partial curve]",–
COc1ccc(C(=O)Nc2ccccc2C(=O)N2CCOCC2)cc1OC,"inconclusive: 7.94 µM [inhibitor, single point]",–
O=C1COc2ccc(C(=O)COC(=O)/C=C/c3ccco3)cc2N1,–,inactive: -11.6%
COc1ccc(Nc2ccccc2N)cc1,–,inactive: -5.44%
Cc1ccccc1Nc1c(-c2ccccc2O)nc2sccn12,–,inactive: -16.4%
O=C(NCc1ccco1)Nc1cccc(-c2ccccc2)c1,"inconclusive: 7.08 µM [inhibitor, single point]",–
CCOc1ccc(N(CC(=O)Nc2ccc3c(c2)OCO3)S(=O)(=O)c2ccccc2)cc1,"inconclusive: 0.251 µM [inhibitor, full curve, poor fit]",–
CC(C)Sc1ncc(Cl)c(C(=O)Nc2c(C(=O)Nc3ccccc3)oc3ccccc23)n1,"inconclusive: 7.94 µM [inhibitor, full curve]",–
COc1cc(C(=O)Nc2ccc(N(C)C)cc2)cc(OC)c1OC,–,inconclusive: -28.2% [inhibitor]
O=c1cc2oc3cc(O)c(O)cc3c(-c3ccccc3[N+](=O)[O-])c-2cc1O,"inconclusive: 39.8 µM [inhibitor, partial curve, poor fit]",–
COc1ccccc1Nc1nc(C)nc2c1oc1ccccc12,"inconclusive: 50.1 µM [inhibitor, partial curve, poor fit]",–
CC1CCCCN1CC(O)COCc1ccc(Cl)cc1 (stereo not drawn),"inconclusive: 20 µM [inhibitor, partial curve]",–
COC(=O)c1ccc(-c2nc3cc(Cl)c(N)cc3s2)cc1,"inconclusive: 44.7 µM [inhibitor, partial curve, poor fit]",–
C#CCOCCOCCOCCNc1nc(N2CCN(C(=O)C(Cc3cc4ccccc4[nH]3)n3cc(C(N)C(C)CC)nn3)CC2)nc(N2CCN(C(=O)C(Cc3cc4ccccc4[nH]3)n3cc(C(N)C(C)CC)nn3)CC2)n1 (stereo not drawn),"inconclusive: 5.62 µM [inhibitor, full curve, poor fit]",–
CN1/C(=C\C(=O)COc2ccc3c(c2)OCO3)C(C)(C)c2ccccc21,"inconclusive: 56.2 µM [inhibitor, single point]",–
COc1ccccc1S(=O)(=O)Cc1ccc(C(=O)N2CCOCC2)o1,"inconclusive: 1.26 µM [inhibitor, full curve, poor fit]",–
COc1ccc(/C=C/C(=O)NCCCN2CCCC2)cc1,–,inactive: -13.4%
CCN1/C(=C2\OC(=S)N(C)C2=O)C=Cc2ccccc21,–,inactive: -7.32%
CCc1nn(CC(=O)Nc2ccc(C)cc2C)c(=O)c2cc3sccc3n12,"inconclusive: 35.5 µM [inhibitor, single point]",–
CC(Oc1ccc(F)cc1)C(=O)Nc1cccc(S(=O)(=O)N(C)c2ccccc2)c1 (stereo not drawn),"inconclusive: 2.82 µM [inhibitor, full curve, poor fit]",–
CCCC(=O)Nc1cccc(Oc2nc(C)cc(C)c2C#N)c1,–,inactive: -5.8%

SMILES,Potency,"activity change, negative = inhibition"
CCOC(=O)c1ccc(NC(=O)CSc2nc(C)c(Cc3ccccc3)c(=O)[nH]2)cc1,"inconclusive: 0.447 µM [inhibitor, full curve, poor fit]",–
O=C(Nc1ccc2c(c1)OCO2)[C@@H]1CCCN1S(=O)(=O)c1cccc2cccnc12,"inconclusive: 112 µM [inhibitor, partial curve, poor fit]",–
COc1ccc(NC(=O)C2CCCCN2N)cc1OCC(C)C (stereo not drawn),"inconclusive: 44.7 µM [inhibitor, partial curve, poor fit]",–
COc1ccc(-n2c(Cc3cc(=O)[nH]c(=O)[nH]3)nnc2SCC(=O)N2CCC(C)CC2)cc1,"inconclusive: 28.2 µM [inhibitor, partial curve]",–
O=C1c2ccccc2-c2onc3c(N4CCN(CCO)CC4)cc(N4CCN(C(=O)c5ccco5)CC4)c1c23,"inconclusive: 25.1 µM [inhibitor, partial curve]",–
CC(=O)c1ccc(N2CCN(S(=O)(=O)c3csc(C(N)=O)c3)CC2)cc1,"inconclusive: 56.2 µM [inhibitor, partial curve, poor fit]",–
CN(C(=O)c1cccc(NC(=O)Cc2ccc(NC(=O)C3CCN(C(=O)CCc4ccccc4)CC3)cc2)c1)C1CCC1,"inconclusive: 44.7 µM [inhibitor, partial curve]",–
CN1C(=O)/C(=C/c2cccc([N+](=O)[O-])c2)C(=O)N1c1ccccc1,–,inactive: -21.7%
COc1ccc(-n2c(C)ccc2C)c([N+](=O)[O-])c1,"inconclusive: 5.62 µM [inhibitor, partial curve]",–
O=C(Nc1ccc(NC(=O)c2cccs2)cc1)c1cccs1,"inconclusive: 6.31 µM [inhibitor, single point]",–
O=C(COC(=O)c1ccc([N+](=O)[O-])o1)NC1CCCCC1,"inconclusive: 35.5 µM [inhibitor, partial curve, poor fit]",–
O=C(NCCNC(=O)c1cc(OCC(F)(F)F)ccc1OCC(F)(F)F)Nc1ccc(Cl)cc1,–,inactive: -11.1%
CN1CCN(S(=O)(=O)c2ccc(NC(=O)c3ccccc3Cl)cc2)CC1,–,inactive: -9.86%
Cc1ccc(SCc2nc(N)nc(Nc3ccccc3C)n2)c(C)c1,–,inactive: -20.2%
Cc1ccc(CNC(=O)CSc2ccc(-c3sc(-c4ccccc4)nc3C)nn2)cc1,"inconclusive: 0.141 µM [inhibitor, full curve, poor fit]",–
O=C(c1cccs1)N1C[C@H](O)[C@@H](n2cc(-c3ccc(F)cc3)nn2)C[C@@H]1c1ccccc1,"inconclusive: 0.251 µM [inhibitor, full curve, poor fit]",–
O=C(O)c1ccc2c(c1)C(=O)N(c1ccc(Cl)cn1)C2=O,"inconclusive: 50.1 µM [inhibitor, partial curve]",–
CN(C)c1ccc(C(=N)Cc2ccc3ccccc3n2)cc1,"inconclusive: 50.1 µM [inhibitor, partial curve, poor fit]",–
O=C(Nc1nc(-c2ccc(Cl)s2)cs1)c1cccs1,"inconclusive: 28.2 µM [inhibitor, partial curve]",–
CCOC(=O)CNC(=O)c1cc2c(=O)n(CC)c3ccccc3c2s1,–,inactive: -19.9%
CCOC(=O)c1cccc(NC(=O)c2cc(S(=O)(=O)N3CCCC3)cn2C)c1,"inconclusive: 1.58 µM [inhibitor, full curve]",–

SMILES,Potency,"activity change, negative = inhibition"
Cc1c(C(=O)OCC(=O)N2CCCC2)cccc1[N+](=O)[O-],"inconclusive: 28.2 µM [inhibitor, single point]",–
CN(C(=O)COC(=O)c1cc(F)c(F)cc1Cl)c1ccccc1,"inconclusive: 0.794 µM [inhibitor, full curve, poor fit]",–
Cc1cccnc1NC(=O)CNC(=O)c1sc2ccccc2c1Cl,–,inactive: -21.9%
Cc1oc2ccc(O)c(CN3CCOCC3)c2c1C(=O)Nc1ccc(C(C)C)cc1,"inconclusive: 2.51 µM [inhibitor, full curve]",–
COc1ccccc1CNC(=O)C1CCCN(S(=O)(=O)c2ccc3c(c2)C(C)(C)C(=O)N3C)C1 (stereo not drawn),"inconclusive: 0.708 µM [inhibitor, full curve, poor fit]",–
COc1ccc(NC(=O)C2CCCN(S(=O)(=O)c3ccc(C)cc3)C2)cc1OC (stereo not drawn),"inconclusive: 5.01 µM [inhibitor, partial curve, poor fit]",–
Cn1ncc2c(NCCc3ccccc3)nc(Cl)nc21,"inconclusive: 11.2 µM [inhibitor, partial curve]",–
CN(C)c1ccc(/C=C(/C#N)C(=O)NCc2ccccc2)o1,"inconclusive: 25.1 µM [inhibitor, partial curve]",–
CC1=CC(=O)C2=C(C)CC[C@@H]3[C@H](OC(=O)[C@H]3C)[C@@H]12,"inconclusive: 1120 µM [inhibitor, partial curve]",–
CCOC(=O)c1ccccc1N/C=C/C(=O)c1ccccc1,"inconclusive: 39.8 µM [inhibitor, partial curve]",–
Nc1nonc1-n1nnc(C(=O)N/N=C/c2ccc(OCc3cccc(Cl)c3)cc2)c1CN1CCCCC1,–,inactive: -6.58%
CC1CC1c1ccc(/C=C(\C#N)C(=O)Nc2ccccc2Cl)o1 (stereo not drawn),"inconclusive: 39.8 µM [inhibitor, partial curve]",–
CCC(CC)C(=O)c1c[nH]c(C(=O)NCc2ccncc2)c1,"inconclusive: 5.01 µM [inhibitor, partial curve]",–
CCOC(=O)c1cnc2ccc(Cl)cc2c1Nc1ccc(OCC)cc1,"inconclusive: 4.47 µM [inhibitor, single point]",–
COc1ccc(C(=O)Nc2ccccc2-c2nc3ccccc3s2)c(OC)c1,"inconclusive: 35.5 µM [inhibitor, single point]",–
COc1ccc(Nc2cc(C(=O)NCCCN(C)Cc3ccccc3)c3ccccc3n2)cc1,–,inactive: -3.71%
Cc1ccc(N(CC(=O)NCc2ccccc2Cl)S(=O)(=O)c2cccs2)cc1,"inconclusive: 39.8 µM [inhibitor, partial curve]",–
CCOc1ccccc1CNC(=O)c1ccc(Cn2c(SCc3ccccc3)nc3cccnc32)cc1,–,inactive: -18.6%
Cn1c(=N)n(CC(=O)c2cccs2)c2ccccc21,"inconclusive: 7.08 µM [inhibitor, partial curve, poor fit]",–
CCc1ccccc1NC(=O)c1cc2c(Cl)nc3ccccc3c2s1,"inconclusive: 25.1 µM [inhibitor, partial curve, poor fit]",–
CC(OC(=O)Cc1n[nH]c(=O)c2ccccc12)C(=O)N(C)c1ccccc1 (stereo not drawn),–,inactive: -18.8%
